Laboratory results taken from US20170355992.
For part of these data: Negatives hold for the conditions tested. For part of these data: A weaker result is weaker than the reference pair of the same experiment. For part of these data: Where a protein sequence is shown, tags need not be part of it.

Chains of the proteins cited; added tags and fusions are not shown. A line that says so, or that is headed by a name, gives the form on record, which may keep a tag or linker.
Coagulation Factor Va (FVa), modified (Homo sapiens), one chain, as listed by the source: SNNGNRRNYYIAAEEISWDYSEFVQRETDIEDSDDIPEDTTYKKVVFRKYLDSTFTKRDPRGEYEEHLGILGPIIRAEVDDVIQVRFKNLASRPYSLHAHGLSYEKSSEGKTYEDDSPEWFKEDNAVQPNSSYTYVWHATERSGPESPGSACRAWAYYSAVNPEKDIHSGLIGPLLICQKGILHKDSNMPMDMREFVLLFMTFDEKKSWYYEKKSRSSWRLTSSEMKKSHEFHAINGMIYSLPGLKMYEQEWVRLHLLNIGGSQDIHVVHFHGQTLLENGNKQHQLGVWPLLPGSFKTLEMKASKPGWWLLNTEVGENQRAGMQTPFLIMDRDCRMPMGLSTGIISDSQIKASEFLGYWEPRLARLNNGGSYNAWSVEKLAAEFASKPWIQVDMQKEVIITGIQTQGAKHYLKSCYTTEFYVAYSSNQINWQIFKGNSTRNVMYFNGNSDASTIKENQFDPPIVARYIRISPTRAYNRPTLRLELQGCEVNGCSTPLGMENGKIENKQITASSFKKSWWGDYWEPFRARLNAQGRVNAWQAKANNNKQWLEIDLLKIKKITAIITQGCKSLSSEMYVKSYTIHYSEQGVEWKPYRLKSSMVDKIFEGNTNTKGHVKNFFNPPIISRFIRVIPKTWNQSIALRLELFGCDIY

Tests used:
Factor V heavy chain = target: T1, Factor V heavy chain (UniProt P12259); assay: SPR; settings: 2'-F C and U; 5' biotin and PEG11 spacer; three runs: 105.1, 59.46, 57.77; HBS 2 mM CaCl2, 25 C; label: 5'-biotin; variant of T18.3
T1 sequence (looked up, limits assumed): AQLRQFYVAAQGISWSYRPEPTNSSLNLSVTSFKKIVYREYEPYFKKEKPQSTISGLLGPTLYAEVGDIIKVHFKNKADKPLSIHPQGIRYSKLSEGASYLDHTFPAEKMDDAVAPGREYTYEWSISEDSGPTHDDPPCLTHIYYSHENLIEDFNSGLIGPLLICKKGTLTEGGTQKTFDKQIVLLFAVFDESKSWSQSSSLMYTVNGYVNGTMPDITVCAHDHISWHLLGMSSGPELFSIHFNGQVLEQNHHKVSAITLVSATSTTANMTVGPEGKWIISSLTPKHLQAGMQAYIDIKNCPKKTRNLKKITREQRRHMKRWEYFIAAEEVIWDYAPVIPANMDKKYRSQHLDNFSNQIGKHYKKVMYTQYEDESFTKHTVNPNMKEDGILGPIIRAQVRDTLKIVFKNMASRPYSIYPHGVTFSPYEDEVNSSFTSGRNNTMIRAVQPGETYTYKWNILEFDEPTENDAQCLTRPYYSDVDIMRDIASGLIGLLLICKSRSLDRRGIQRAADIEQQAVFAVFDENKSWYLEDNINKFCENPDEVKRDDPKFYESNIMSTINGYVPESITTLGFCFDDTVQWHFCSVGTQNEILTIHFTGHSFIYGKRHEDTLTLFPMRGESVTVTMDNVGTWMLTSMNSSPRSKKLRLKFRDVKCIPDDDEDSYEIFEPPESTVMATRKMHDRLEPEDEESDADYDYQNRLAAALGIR

[1] = tested on: Coagulation Factor Va (FVa), modified (Homo sapiens); assay: inhibition of the protein; settings: 2'-F C and U, label: 5'-32P, dose not given here

GGACUUGGAUAACCUCACCGCAAUGGCGGCUUGUCAGACGACUCGCUGAGGAUCCGAG [T18.3 biotinylated]
binding result (Factor V heavy chain): binds more weakly

GGAUCCAACGCACAAUUACGUGCCGGUUCAGACGACUCGCUGAGGAUCC [11Mut2]
functional effect of the aptamer ([1]; no significant reduction of meizothrombin generation, variant of 11HMT): not active

GGAUCCAACGCACAAUUACGUGCCUUGUCAGACGACUCGCUGAGGAUCC [11HMT]
functional effect of the aptamer ([1]; reduces meizothrombin generation, less potent than T18.3, variant of FVa R9c11): active
